{"sequences": {"note": "The chains behind the UniProt entries cited, without tags or fusion partners. Where a name states a change or a piece, a line headed by the entry shows the natural chain unless it says otherwise.", "UniProt Q13905": "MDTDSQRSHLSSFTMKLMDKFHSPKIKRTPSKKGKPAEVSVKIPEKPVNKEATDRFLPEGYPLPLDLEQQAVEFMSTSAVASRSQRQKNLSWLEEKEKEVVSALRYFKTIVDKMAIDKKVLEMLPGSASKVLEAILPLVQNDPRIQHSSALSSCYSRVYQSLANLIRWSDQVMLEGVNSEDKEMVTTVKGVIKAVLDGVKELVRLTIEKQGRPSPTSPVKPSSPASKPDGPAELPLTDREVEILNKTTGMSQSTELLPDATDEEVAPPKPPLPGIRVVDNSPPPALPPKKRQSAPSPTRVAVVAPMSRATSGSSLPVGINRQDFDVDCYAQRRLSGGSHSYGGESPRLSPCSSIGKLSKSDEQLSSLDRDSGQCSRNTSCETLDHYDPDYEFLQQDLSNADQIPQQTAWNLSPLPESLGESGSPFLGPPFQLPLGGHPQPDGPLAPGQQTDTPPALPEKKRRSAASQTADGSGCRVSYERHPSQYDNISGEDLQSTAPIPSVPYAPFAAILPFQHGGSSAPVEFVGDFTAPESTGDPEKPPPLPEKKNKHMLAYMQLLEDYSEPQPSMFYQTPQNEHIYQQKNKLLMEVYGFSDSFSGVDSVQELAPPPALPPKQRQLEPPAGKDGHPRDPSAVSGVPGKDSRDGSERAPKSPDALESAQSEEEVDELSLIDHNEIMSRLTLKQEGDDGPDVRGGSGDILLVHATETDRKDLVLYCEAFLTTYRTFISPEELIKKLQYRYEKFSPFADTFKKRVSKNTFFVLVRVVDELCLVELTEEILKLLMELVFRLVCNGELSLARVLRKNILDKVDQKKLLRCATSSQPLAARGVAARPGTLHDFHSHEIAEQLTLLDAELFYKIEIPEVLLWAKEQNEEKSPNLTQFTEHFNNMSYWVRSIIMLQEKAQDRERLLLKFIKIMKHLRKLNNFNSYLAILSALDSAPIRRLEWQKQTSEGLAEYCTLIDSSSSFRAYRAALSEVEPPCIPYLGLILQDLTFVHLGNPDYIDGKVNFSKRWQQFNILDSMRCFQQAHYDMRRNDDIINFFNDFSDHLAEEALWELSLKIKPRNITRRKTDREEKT"}, "source": "paper PMC3629710", "binders": {"B1": {"name": "p130Cas (protein, UniProt P56945-1 1-870)", "chain": "MNHLNVLAKALYDNVAESPDELSFRKGDIMTVLEQDTQGLDGWWLCSLHGRQGIVPGNRLKILVGMYDKKPAGPGPGPPATPAQPQPGLHAPAPPASQYTPMLPNTYQPQPDSVYLVPTPSKAQQGLYQVPGPSPQFQSPPAKQTSTFSKQTPHHPFPSPATDLYQVPPGPGGPAQDIYQVPPSAGMGHDIYQVPPSMDTRSWEGTKPPAKVVVPTRVGQGYVYEAAQPEQDEYDIPRHLLAPGPQDIYDVPPVRGLLPSQYGQEVYDTPPMAVKGPNGRDPLLEVYDVPPSVEKGLPPSNHHAVYDVPPSVSKDVPDGPLLREETYDVPPAFAKAKPFDPARTPLVLAAPPPDSPPAEDVYDVPPPAPDLYDVPPGLRRPGPGTLYDVPRERVLPPEVADGGVVDSGVYAVPPPAEREAPAEGKRLSASSTGSTRSSQSASSLEVAGPGREPLELEVAVEALARLQQGVSATVAHLLDLAGSAGATGSWRSPSEPQEPLVQDLQAAVAAVQSAVHELLEFARSAVGNAAHTSDRALHAKLSRQLQKMEDVHQTLVAHGQALDAGRGGSGATLEDLDRLVACSRAVPEDAKQLASFLHGNASLLFRRTKATAPGPEGGGTLHPNPTDKTSSIQSRPLPSPPKFTSQDSPDGQYENSEGGWMEDYDYVHLQGKEEFEKTQKELLEKGSITRQGKSQLELQQLKQFERLEQEVSRPIDHDLANWTPAQPLAPGRTGGLGPSDRQLLLFYLEQCEANLTTLTNAVDAFFTAVATNQPPKIFVAHSKFVILSAHKLVFIGDTLSRQAKAADVRSQVTHYSNLLCDLLRGIVATTKAAALQYPSPSAAQDMVERVKELGHSTQQFRRVLGQLAAA"}}, "biological_target": "C3G (endogenous, isoform not told in the immunoprecipitations) (human (endogenous in K562)) (UniProt Q13905)", "experiment": "co-IP; endogenous proteins immunoprecipitated from precleared K562 whole cell lysates (GammaBind G Sepharose), immunoblot; in Figures 5A and 6E cells cultured on 10 ug/ml fibronectin for 24 h; in Figure 6E shC3G or shCT clones", "note": "No constants are given. Whether binding was seen depends on the method and setting. Binding seen in cells or lysates may run through a third protein. Binding can be weak; no strength is given."}
{"binder": "B1", "values": [{"measurement": "binding", "result": "binds"}]}
